Source: article PMC7819943, “Rice protein-binding microarrays: a tool to detect cis-acting elements near promoter regions in rice”
Some of the results follow.

By UniProt entry, the sequences of proteins in these tests, tags left out.
UniProt Q0JBA9, entry or part of it: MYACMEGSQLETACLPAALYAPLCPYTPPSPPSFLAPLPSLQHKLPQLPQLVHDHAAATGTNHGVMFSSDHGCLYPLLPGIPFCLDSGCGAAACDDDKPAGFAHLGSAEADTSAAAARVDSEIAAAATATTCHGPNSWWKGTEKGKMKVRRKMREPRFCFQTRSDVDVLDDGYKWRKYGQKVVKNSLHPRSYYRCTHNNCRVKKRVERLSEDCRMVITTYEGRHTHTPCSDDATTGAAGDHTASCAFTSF

Molecular target: OsWRKY34 (Oryza sativa, UniProt Q0JBA9 1-250)
Experiment: protein-binding microarray (RPBM); PBS, 2% BSA, 51.3 ng/ul salmon testes DNA, 50 uM zinc acetate, 200 nM TF, 25 C, 1 h; high values mean tight binding
Conditions: protein: recombinant; tags: N-terminal polyhistidine and DsRed monomer fusion (pET32a); label: CyDye5-dUTP incorporated in the synthesized complementary strand; 3' TTTTT single-stranded linker to array surface; dsDNA, one strand shown
Method in brief: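 Using Ni–NTA, transcription factors fused N-terminally to polyhistidine and DsRed were purified after expression in E. coli BL21-CodonPlus. These were incubated at 200 nM with a blocked, double-stranded custom Agilent array for 1 h at 25 °C in a buffer containing 50 µM zinc acetate, and the array was washed. The binding signal is per-feature fluorescence intensity (arbitrary units) on an Axon 4000B scanner.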

Point of comparison: “AAATATAATTCCGTGCCTTGTTAATATATCTCTGTTATCCCGGAGTCACCTAGTGCAG”, binding signal 12800 fluorescence intensity (a.u.). Against it:
- ACCCCTAATGGCAGCTTTTCCGTTCTGCGCTTTTACTTCCCGGAGTCACCTAGTGCAG — higher, 15200 fluorescence intensity (a.u.)
- TGTTCCTTTCGCGCATGGTCGACGCCTTTTCCCTGTTCAACGGAGTCACCTAGTGCAG — lower, 10900 fluorescence intensity (a.u.)
- CATTCTCCACCACCGCTCCCTAGCACACGAGAGAGACGACCGGAGTCACCTAGTGCAG — lower, 8800 fluorescence intensity (a.u.)
- TTTTCCCAACTCACCTTTCTTGTTTTCCGCGCACACGCATCGGAGTCACCTAGTGCAG — lower, 12100 fluorescence intensity (a.u.)
- CTGCTATAGATTGCTCTGTCCATTTACATTTGGTTTCTTGCGGAGTCACCTAGTGCAG — lower, 11100 fluorescence intensity (a.u.)
- GTGATAGATATATGGGGCCAAGGGCATTTCTGACCCTTTTCGGAGTCACCTAGTGCAG — lower, 9120 fluorescence intensity (a.u.)
- GCCGTATCTTCTGCGTTGACCAGATCCTTCACTGTCACGCCGGAGTCACCTAGTGCAG — higher, 19200 fluorescence intensity (a.u.)
- GCTCGCCAGTTCGTCGTCCTCTTCGCCGAGCTCGCGAGCTCGGAGTCACCTAGTGCAG — lower, 9250 fluorescence intensity (a.u.)
- CGTAAGCTCTCCAGTTCAAATGGTCTTCTCGTGGGCCTCTCGGAGTCACCTAGTGCAG — lower, 9390 fluorescence intensity (a.u.)
- TGTGAGTAGTTTGTGGTTGGGAGTGTAACGGGTGGGGTGGCGGAGTCACCTAGTGCAG — higher, 16900 fluorescence intensity (a.u.)
- CCTCGAGCTGTGCACGGCTGGTTCGTCTCGCGCCGCTTATCGGAGTCACCTAGTGCAG — lower, 10900 fluorescence intensity (a.u.)
- CGCCCCACGACCTTTTTCCCATCACCCGCCCGCGCGCGCGCGGAGTCACCTAGTGCAG — lower, 10900 fluorescence intensity (a.u.)
- GTCTCGCTCTTCCTCGGGTTCCGCTTCTCCAGGCTCCTCTCGGAGTCACCTAGTGCAG — lower, 8870 fluorescence intensity (a.u.)
- GCCATGTCCTGGTCGTGACGCCCACCTACTCCCGCGCGTTCGGAGTCACCTAGTGCAG — lower, 10600 fluorescence intensity (a.u.)
- TATATATATATATATATATATAGACACACACACGCCAATCCGGAGTCACCTAGTGCAG — lower, 9920 fluorescence intensity (a.u.)
- GTTCAGTTGTGTTGTGATCTTCTTCTGTGTTCCTCAGCTGCGGAGTCACCTAGTGCAG — lower, 12000 fluorescence intensity (a.u.)
- TTTTAATTAATCGTCACCAGATTGTTTTTTTTCTTTCTTTCGGAGTCACCTAGTGCAG — lower, 12400 fluorescence intensity (a.u.)
- CCGCCGCCTCGTCCGCGACCGCCGCCGTGCGCGCCTCCGCCGGAGTCACCTAGTGCAG — lower, 10300 fluorescence intensity (a.u.)
- AGACCCTTTTTTTTTTCTTTGCTTCGAGCCGAAGGAGACGCGGAGTCACCTAGTGCAG — lower, 11200 fluorescence intensity (a.u.)
- CGATCCGTCCATCACAACATCGGACGGCCCACGTTACACCCGGAGTCACCTAGTGCAG — lower, 9020 fluorescence intensity (a.u.)
- CTCACTTTCCTCGTTTTCCGTACACATGCTTACCAAATTGCGGAGTCACCTAGTGCAG — lower, 8220 fluorescence intensity (a.u.)
- AGAATGGTCTTATATGTTGTGTAGTGGTGTGTGGGCGTGTCGGAGTCACCTAGTGCAG — lower, 8170 fluorescence intensity (a.u.)
- TCATTCATAATTCATCCATTCATTCGGTCAACCGGTCACACGGAGTCACCTAGTGCAG — lower, 8120 fluorescence intensity (a.u.)
- TCATAATTGGATGGCATTGTACTGTGATTTGTTTGTGTTGCGGAGTCACCTAGTGCAG — lower, 12000 fluorescence intensity (a.u.)
- GTCCTTTTCTAATGATTCACCTTCACTTGATCCATCTGAGCGGAGTCACCTAGTGCAG — lower, 9050 fluorescence intensity (a.u.)
- TCACTGGATATTTCCACTGCATCATGGTCTACAATCATATCGGAGTCACCTAGTGCAG — lower, 11700 fluorescence intensity (a.u.)
- ACCACTTTTGTCGTTTTTGTTTCCCTATTTTTTTCGAAATCGGAGTCACCTAGTGCAG — lower, 8540 fluorescence intensity (a.u.)
- TTCTTTCCCATGGTGCTTCTTTTTTTCAAGACATTTCTCTCGGAGTCACCTAGTGCAG — lower, 12700 fluorescence intensity (a.u.)
- TGCTAATTGTATTTCTATATGGACTCTATACTCTACTTCTCGGAGTCACCTAGTGCAG — lower, 8130 fluorescence intensity (a.u.)
- TACCCCACTCCACCTTCTGTTCTGCACGCACCCACCAATGCGGAGTCACCTAGTGCAG — lower, 9660 fluorescence intensity (a.u.)
- CCCCGAGGAAGGGAGTACTTGATATCTTTTTCCCATTTAACGGAGTCACCTAGTGCAG — lower, 9050 fluorescence intensity (a.u.)
- CAATTTGTGGGGTAATATCTTCAACGGCCTCGCTTTCACTCGGAGTCACCTAGTGCAG — lower, 9210 fluorescence intensity (a.u.)
- ACGAGTCGACCCAAAAAAATCTTCCATCATTTATTTTCTTCGGAGTCACCTAGTGCAG — lower, 9320 fluorescence intensity (a.u.)
- CGTTTGGTGTAGGCCCAGGCCGTGTACTTGGGCCCATCTGCGGAGTCACCTAGTGCAG — lower, 8440 fluorescence intensity (a.u.)
- CTATTGGGTGGACGCCGAAGACAGCTTCTTCCCACGCCGCCGGAGTCACCTAGTGCAG — lower, 8220 fluorescence intensity (a.u.)
- ACTGGGAAATCGGGTTGGGGAGGGAGATGGACAGCTGGGTCGGAGTCACCTAGTGCAG — lower, 9230 fluorescence intensity (a.u.)
- TCTCGGGCCGAAACGGTCAACGCGTTTACCGGTGGCATAACGGAGTCACCTAGTGCAG — higher, 17500 fluorescence intensity (a.u.)
- ACCGGCTCTCTAATCCTTAAATTCTGGCTTTGCTGCTAGTCGGAGTCACCTAGTGCAG — lower, 9240 fluorescence intensity (a.u.)
- TCTCTCTGGGAGGTCTCGCGGAAGGTGGTGGGGTTGGGCCCGGAGTCACCTAGTGCAG — lower, 11500 fluorescence intensity (a.u.)
- TCTTCAGTAGTCTTGCTCTATATGCATTGTGATGTCCATCCGGAGTCACCTAGTGCAG — lower, 9060 fluorescence intensity (a.u.)
- TGACTCTTCTATGCTTCTTGGACCAATTTGATTTTCAGGTCGGAGTCACCTAGTGCAG — lower, 10300 fluorescence intensity (a.u.)
